PubChem BioAssay AID686938, Drosophila RNAi Screening Center, 2013

Assay: 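Fly genes required for calcium entry once internal stores are emptied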 (primary screen)
Cell system: Drosophila S2R+ cells
Reagents: long dsRNA against Drosophila genes, about 0.25 µg dsRNA per well, roughly 10,000 cells
Duration: 5 days of knock-down before the calcium assay
Challenge: thapsigargin (SERCA pump blocker) to empty calcium stores; entry signal taken 4 min after adding it
Measurement: 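Duplicate raw fluo-4 intensities per well from a plate reader, at rest and four minutes after thapsigargin emptied calcium stores; entry-to-rest ratio filled for only some wells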
Scale: calcium entry signal: higher = stronger calcium signal after store depletion; resting calcium signal: higher = higher resting calcium signal
Units: calcium entry signal in fluorescence units; resting calcium signal in fluorescence units
Hit rule: 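Called when the plate z-score of the entry-to-rest ratio, mean of duplicates, falls below −3; wells with low overall dye signal (Fmax z below −2) or more than five off-targets excluded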
Meaning of the calls: active = strongly reduced calcium entry; inactive = no strong reduction
The deposit covers about 23,000 reagents; shown is a random part of those with a known target gene and a result. In the full data, 75 (0.33%) are marked active. 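Raw plate signals without normalisation; calls rest on plate z-scores that were not deposited; ratio present for only 364 wells.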 Names joined by + are all predicted targets of the reagent. Reagent sequences are not shown. Not given: the dose of the treatment.

CG4073
- calcium entry signal, replicate 1: 3.42e7
- calcium entry signal, replicate 2: 3.36e7
- resting calcium signal, replicate 1: 1.69e7
- resting calcium signal, replicate 2: 1.74e7
- Outcome: inactive

CG7044
- calcium entry signal, replicate 1: 4.67e7
- calcium entry signal, replicate 2: 4.21e7
- resting calcium signal, replicate 1: 4.96e7
- resting calcium signal, replicate 2: 1.85e7
- Outcome: inactive

betaCOP
- calcium entry signal, replicate 1: 2.17e7
- calcium entry signal, replicate 2: 2.40e7
- resting calcium signal, replicate 1: 1.59e7
- resting calcium signal, replicate 2: 1.38e7
- Outcome: inactive

spaw
- calcium entry signal, replicate 1: 3.91e7
- calcium entry signal, replicate 2: 4.10e7
- resting calcium signal, replicate 1: 1.88e7
- resting calcium signal, replicate 2: 1.76e7
- Outcome: inactive

CG43218
- calcium entry signal, replicate 1: 3.76e7
- calcium entry signal, replicate 2: 4.23e7
- resting calcium signal, replicate 1: 1.93e7
- resting calcium signal, replicate 2: 2.04e7
- Outcome: inactive

Cyt-c-p
- calcium entry signal, replicate 1: 3.44e7
- calcium entry signal, replicate 2: 2.17e7
- resting calcium signal, replicate 1: 1.64e7
- resting calcium signal, replicate 2: 1.08e7
- Outcome: inactive

CG42362 + CG42363
- calcium entry signal, replicate 1: 2.48e7
- resting calcium signal, replicate 1: 1.29e7
- Outcome: inactive

Task6
- calcium entry signal, replicate 1: 3.11e7
- calcium entry signal, replicate 2: 5.94e7
- resting calcium signal, replicate 1: 1.59e7
- resting calcium signal, replicate 2: 6.60e7
- Outcome: inactive

CG43089
- calcium entry signal, replicate 1: 3.17e7
- calcium entry signal, replicate 2: 4.46e7
- resting calcium signal, replicate 1: 1.75e7
- resting calcium signal, replicate 2: 2.09e7
- Outcome: inactive

CG1850
- calcium entry signal, replicate 1: 4.16e7
- calcium entry signal, replicate 2: 4.16e7
- resting calcium signal, replicate 1: 1.98e7
- resting calcium signal, replicate 2: 1.78e7
- Outcome: inactive

CG12991
- calcium entry signal, replicate 1: 2.20e7
- calcium entry signal, replicate 2: 2.37e7
- resting calcium signal, replicate 1: 1.20e7
- resting calcium signal, replicate 2: 1.06e7
- Outcome: inactive

E2f2
- calcium entry signal, replicate 1: 3.01e7
- resting calcium signal, replicate 1: 1.55e7
- Outcome: inactive

Tmtc2
- calcium entry signal, replicate 1: 4.87e7
- resting calcium signal, replicate 1: 2.81e7
- Outcome: inactive

CG14968
- calcium entry signal, replicate 1: 2.11e7
- calcium entry signal, replicate 2: 2.66e7
- resting calcium signal, replicate 1: 1.10e7
- resting calcium signal, replicate 2: 1.21e7
- Outcome: inactive
